# Experimental data: the supplement of paper PMC12764529
# ± gives the half width of the 95% confidence interval. The two proteases of the assay disagree for many of these sequences.
# What was measured:
# [1] = folding stability dG unfold from trypsin proteolysis; higher = more stable
# In short: (§1)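 How resistant each design was to proteolysis was captured as K50, inferred by Bayesian fitting of sequencing counts. Unfolding free energy was then derived relative to a sequence-predicted unfolded-state K50 and a shared folded-state K50, per protease or combined. Digestion used trypsin and chymotrypsin at 11 threefold-diluted concentrations plus a no-protease condition, on mini-proteins under 80 residues without cysteine in a PA-tagged cDNA display construct. Designs were kept only when AlphaFold2 dimer inter-PAE was above 15.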
# [2] = folding stability dG unfold (combined trypsin and chymotrypsin); higher = more stable
# In short: as §1
# [3] = folding stability dG unfold from chymotrypsin proteolysis; higher = more stable
# In short: as §1
Sequence,folding stability dG unfold [1],folding stability dG unfold [2],folding stability dG unfold [3]
SAGMKKVIELTIPVTGPEEVEELVAKLEEEEPAVPVERRPDPRLGAVRVVVEKKFPDSIVYITLTAAASAGG [r19_262_JUSTAS],0.784 ± 0.042 kcal/mol,0.677 ± 0.065 kcal/mol,0.496 ± 0.071 kcal/mol
SAGGSAGGAKPPKTVTVKVEVTNADGETQTRTVTLTNLPKDLKPGDTVTLPETGQTARIVEITPSAGGSAGG [r6_560_TrROS_Hall],3.27 ± 0.078 kcal/mol,3.17 ± 0.1 kcal/mol,3.02 ± 0.097 kcal/mol
SAGGSAGGSMKLKPGEKVKVKVVDPETGEVFEAEVVDGKIYITLPNGEKKEVSAEEIVHVEKVSAGGSAGGS [r20_35_TrROS_Hall],-0.399 ± 0.11 kcal/mol,1.66 ± 0.14 kcal/mol,2.23 ± 0.026 kcal/mol
SAGGSAGGMTVTFTLPATAPENALENVTATVTYNGKTYLVKITATPVPDGPFVVVTAELVEYDPSAGGSAGG [r6_415_TrMRF],3.02 ± 0.083 kcal/mol,3.34 ± 0.17 kcal/mol,3.68 ± 0.14 kcal/mol
SAGGSAGGSAGGKWVFLMFPIEISMTVYEPDDDGEWKQEKYTMEITIMFWLPPNDPDLLSAGGSAGGSAGGS [r10_1133_TrROS],0.942 ± 0.043 kcal/mol,4.03 ± 0.16 kcal/mol,4.69 ± 0.094 kcal/mol
SAGGSAYKITVTWWVKSAEEAVDEIRSIARSWGMEIENIEIEWNPPNGWYWVEYTIEIKPPPPGQLSAGGSA [r15_254_TrROS],2.83 ± 0.081 kcal/mol,3.65 ± 0.2 kcal/mol,4.98 ± 0.15 kcal/mol
SAGGSAGGSAGGPMPVSVSPIGTKVEKTEEPLVVETTTTLSDAEGPPVTTTTTTVTPPSTSAGGSAGGSAGG [r11_129_JUSTAS],1.27 ± 0.08 kcal/mol,1.35 ± 0.13 kcal/mol,1.33 ± 0.1 kcal/mol
SAGGSVSVSYDPESGVLTITIEAENPEEVIEFIKNFVPPEYTVGPITVVKLPDGTYVAFVEIYSRKDKSAGG [r13_338_TrMRF],1.48 ± 0.07 kcal/mol,4.42 ± 0.19 kcal/mol,4.72 ± 0.16 kcal/mol
SAGGSAGGELPEGAEVELVEVDGKLYLVVRFPDGTIQVFELKDGKLEPVKTIKVKPGDVILIELSAGGSAGG [r6_475_TrROS_Hall],1.7 ± 0.052 kcal/mol,3.4 ± 0.084 kcal/mol,3.77 ± 0.043 kcal/mol
SAGGSAGGSAGGWDVEIEPFPDGFIFITAEGPNGRKLVIVVMVVPEGKLMYMIVPLDDLSAGGSAGGSAGGS [r10_140_TrROS],2.35 ± 0.095 kcal/mol,3.34 ± 0.19 kcal/mol,3.71 ± 0.097 kcal/mol
SAGMLYVVVTNAGDKPFVFVVPREEYTPEGIRERVAEALGLPVEDVEILSITPFEDESPIEEVKKKALGSAG [r5_900_JUSTAS],0.763 ± 0.023 kcal/mol,3.39 ± 0.065 kcal/mol,3.87 ± 0.048 kcal/mol
SAGGSMTLRLRFRVRVRVRGRRPDGSLFEFELEVEIELEVEVEPPEPLPPLTPEEAAKIIGNPELVSAGGSA [r2_340_TrMRF],3.8 ± 0.11 kcal/mol,> 6 kcal/mol,6.35 ± 0.39 kcal/mol
SAGGMILVEENGRLYLVEVKVEMKVERDPEVPGEFRMEIRVEIRVREIPLEEIKPLPPPHPDDPENKSAGGS [r16_395_TrROS_Hall],2.19 ± 0.12 kcal/mol,3.94 ± 0.35 kcal/mol,4.71 ± 0.36 kcal/mol
SAGGSAGGNSAYIFIPITMPIKFKWEYDPDGKPEPREMEMKIRVYIAIRIDPPDGKIRDIGLFFSAGGSAGG [r6_424_TrROS],3.01 ± 0.085 kcal/mol,> 6 kcal/mol,6.33 ± 0.97 kcal/mol
SAGGSAGGSAGGKKKPPPPKRVRLRLTLEFRLPDGLVVRLTAEFDLETNEITVTAEVRPLSAGGSAGGSAGG [r7_213_TrROS_Hall],1.63 ± 0.18 kcal/mol,3.72 ± 0.36 kcal/mol,3.94 ± 0.2 kcal/mol
SAADPVTVTATFPLTVTTTRLVGLSPDGTPVYRTEPRTLTLTFTATVPADPELVEEALRAAAEAAEALGSAG [r14_223_TrMRF],0.0216 ± 0.18 kcal/mol,2.45 ± 0.11 kcal/mol,3.22 ± 0.069 kcal/mol
SAGGSAGGSVPLELELTFKLENGSFIVVKAKIEFNPETPEFKVEVLSVEIFLEPEGKIVSDEDFSAGGSAGG [r6_864_TrMRF],1.43 ± 0.087 kcal/mol,2.44 ± 0.29 kcal/mol,3.08 ± 0.085 kcal/mol
SAGGSAGGSAGGDPDGKPPKIDIEVYEIPFTMTMNDPDGPMRRMPMTITFLRIEIEDDASAGGSAGGSAGGS [r10_643_TrROS],1.28 ± 0.16 kcal/mol,2.71 ± 0.39 kcal/mol,3.74 ± 0.24 kcal/mol
SAGGSAGGKQPIEITIMFRLENGYFIMIVLKIEINPGTGQFKIDILDIYIFKSPNGKWVPLDDFSAGGSAGG [r6_866_TrROS],2.75 ± 0.13 kcal/mol,4.98 ± 0.18 kcal/mol,5.12 ± 0.06 kcal/mol
SAGMSVEDLIAKAKAEIEKAKKEGLKEITINFPYSPEDLEALRKALPSNVTITPSETNTVTITFKIPEKSAG [r5_268_JUSTAS],2 ± 0.067 kcal/mol,3.92 ± 0.089 kcal/mol,4.34 ± 0.054 kcal/mol
SAGGSAGGSAGPFKIEMTFIFKKDNEYYIAKIEIEISPDGYPKMKIEIKKVDINELENYFSAGGSAGGSAGG [r11_690_TrMRF],2.52 ± 0.15 kcal/mol,4.04 ± 0.4 kcal/mol,4.39 ± 0.14 kcal/mol

Sequence,folding stability dG unfold [1],folding stability dG unfold [2],folding stability dG unfold [3]
SAMTKIEVEVYKPEPGRYVVTVNIRPEGTEEEIPFTVEAPPEAAEEILEALKEAFPDLEIDRIEPRYAPSAG [r14_969_TrMRF],-1.08 ± 0.36 kcal/mol,0.547 ± 0.11 kcal/mol,1.09 ± 0.066 kcal/mol
SKEKKTVTITLVLKVEDPEKLKPGDKVELSPELIEELKKAGFKITEIKVTVVKNEDGSLYVVVELKVELESA [r9_465_TrROS_Hall],1.95 ± 0.21 kcal/mol,3.79 ± 0.14 kcal/mol,4.07 ± 0.15 kcal/mol
SAGGSAGGSAGAGKVVFEVDIKTFLGKRKDGSDAPKTIIEIKVFDIAPLDPNDPVLKALISAGGSAGGSAGG [r11_236_TrMRF],2.28 ± 0.11 kcal/mol,3.26 ± 0.22 kcal/mol,3.54 ± 0.15 kcal/mol
SAGGSAGGSAGGKVSIEEIKPLKVLPNGKVLVVMKLKFTEENGPEIGEIDLLFVFDDKGSAGGSAGGSAGGS [r10_941_TrMRF],0.068 ± 0.19 kcal/mol,1.58 ± 0.51 kcal/mol,2.23 ± 0.15 kcal/mol
SAGGSADPKGQPPKTYTVMIMFKVPKPGQPLEITEEWIREIFRPFGVKVNIHRHGDYVMIEVTFYVSAGGSA [r15_377_TrROS],2.7 ± 0.1 kcal/mol,5.7 ± 0.2 kcal/mol,5.9 ± 0.095 kcal/mol
SAGGSAGGSAGMEPIRVTVTTQDTATGTTTTTTVTVPTDVPVEAVLAALDPALVTAVTVESAGGSAGGSAGG [r11_386_JUSTAS],1.68 ± 0.061 kcal/mol,0.808 ± 0.11 kcal/mol,-0.172 ± 0.072 kcal/mol
SAGGMVEVTYDPETGTLTILLPSPSGTLGPEAVEAAARLIRELYPEAEVEVEPLPDNTVRLRVRFPGGSAGG [r13_291_TrMRF],4.22 ± 0.093 kcal/mol,4.96 ± 0.14 kcal/mol,5.38 ± 0.23 kcal/mol
SAGMPFPVRLVSVDPGARVLTIAAPNAKGPATLLPDGTLVVRAVLYDEDGRPVAEFTLTLPVDLPPGLASAG [r5_475_TrMRF],0.684 ± 0.1 kcal/mol,2.07 ± 0.15 kcal/mol,2.73 ± 0.045 kcal/mol
SAGGGPVTEETYTIKRPDGTELVVTRYYFPGTGETVVRIYPPSTKTPLSTVPLSEASPELLAEIARRSAGGS [r8_32_JUSTAS],1.2 ± 0.027 kcal/mol,1.79 ± 0.03 kcal/mol,2.108 ± 0.013 kcal/mol
SAGGSEKLSPEEQAKRQKPPAPPVIVIEGPLSEEQIKALVDAGYTIYITGPDGSVWKIKDGKIEKISAGGSA [r2_33_TrROS_Hall],0.299 ± 0.071 kcal/mol,3.38 ± 0.21 kcal/mol,3.83 ± 0.13 kcal/mol
SAGKIKPGEKKEITIKVDGKEYKITMTTYKNEDGSTYKVIEVEVNGKKYTFVVKEGEKVTLEELKKLLKSAG [r5_138_TrROS_Hall],2.62 ± 0.18 kcal/mol,5.09 ± 0.31 kcal/mol,5.18 ± 0.16 kcal/mol
SAGGSAETVTITLKLKDGSTITITYDKETNTVTITIEKDGKKITVTIKMTPEEVEKLIKELLKKLKSAGGSA [r15_662_TrROS_Hall],2.92 ± 0.14 kcal/mol,5.05 ± 0.24 kcal/mol,5.21 ± 0.18 kcal/mol
SAGGSAGGSAIPAGARVRVRVSDSLTRNPDGSLTVRRTVEIEVVSPDGSRARLRFTFTGEASSAGGSAGGSA [r18_76_TrMRF],1.56 ± 0.027 kcal/mol,4.23 ± 0.06 kcal/mol,4.623 ± 0.039 kcal/mol
SAGGSAGGSAGGGMPSYVTKTTTTTVKITNTTTGGNSTTTTTSTVTVTTTTLLPPGLLASAGGSAGGSAGGS [r10_300_JUSTAS],-0.147 ± 0.052 kcal/mol,0.835 ± 0.074 kcal/mol,1.2 ± 0.028 kcal/mol
GPLEERVEALRARVEALLRELGLPEDVVVTVEVEFERTPSGEPGLRVRVTVTSPGPPGALPAAFEAALAALS [r1_98_JUSTAS],1.29 ± 0.045 kcal/mol,3.19 ± 0.095 kcal/mol,3.46 ± 0.048 kcal/mol
SAGGSAKKPKVKKIVLTVKDKETNETYTITITKNEDGSISITVTSKNGKKLSKEEIEKLLKKLGIESAGGSA [r15_872_TrROS_Hall],1.83 ± 0.11 kcal/mol,3.58 ± 0.18 kcal/mol,3.93 ± 0.15 kcal/mol
SAGGMEIVSSGSLEEAIALLKENPNTTITVTLPDGTTVVIKVTQNGEGPYIYDVSTEPPAAAPSPSLVSAGG [r13_56_JUSTAS],2.15 ± 0.096 kcal/mol,1.66 ± 0.079 kcal/mol,1.1 ± 0.038 kcal/mol
SAGGSAGGSAGLLPIEELLKKNPEPVTFMVKDNDTLYRIEITPKDGKWTIEIEPLPGMKPSAGGSAGGSAGG [r11_549_TrROS],0.756 ± 0.021 kcal/mol,1.2 ± 0.043 kcal/mol,1.49 ± 0.077 kcal/mol
SAGMTITVESLEDALALAEELAEKYPGLKVTVEVRLSPDGKTVEVRVTIEPAPPVKVVDPETGEEVEEESAG [r5_870_TrROS_Hall],3.72 ± 0.36 kcal/mol,3.43 ± 0.3 kcal/mol,2.3 ± 0.12 kcal/mol
SAGGSAGGSAGGGSMTLELPLPEWSEEEIEALAEELKKKGLKVKEIERDPESDVVRITVESAGGSAGGSAGG [r7_906_JUSTAS],1.79 ± 0.1 kcal/mol,2.15 ± 0.11 kcal/mol,2.28 ± 0.078 kcal/mol
SAGGSAGGSKDEYITYKKITIKLKAKITKYIPGKGGYEIEIEDVEIKIEIITLKKKDAKKLAKSAGGSAGGS [r12_723_TrMRF],1.43 ± 0.1 kcal/mol,3.07 ± 0.48 kcal/mol,3.74 ± 0.11 kcal/mol

# Pulled one by one from the list above:
Sequence,folding stability dG unfold [1],folding stability dG unfold [2],folding stability dG unfold [3]
SKEKKTVTITLVLKVEDPEKLKPGDKVELSPELIEELKKAGFKITEIKVTVVKNEDGSLYVVVELKVELESA [r9_465_TrROS_Hall],1.95 ± 0.21 kcal/mol,3.79 ± 0.14 kcal/mol,4.07 ± 0.15 kcal/mol
SAGGSAETVTITLKLKDGSTITITYDKETNTVTITIEKDGKKITVTIKMTPEEVEKLIKELLKKLKSAGGSA [r15_662_TrROS_Hall],2.92 ± 0.14 kcal/mol,5.05 ± 0.24 kcal/mol,5.21 ± 0.18 kcal/mol
